Results taken from patent publication US12128053B2 (Woolsey Pharmaceuticals, Inc., priority 2022, dated 2024).

Assay: Tasting of fasudil formulations (bitterness rank, palatability) by subjects / panel of tasters
Assay type: in vivo, human
Conditions: for Rank# (Bitterness rank): agent added to 3.0 mL fasudil 16 mg/mL stock (Formulation 35A), rank 1 to 10, 10 being most bitter; for taste of the drug: drug itself / fasudil solutions

## Sulfobutyl ether betacyclodextrin [SBEBCD]
Table 8: five amounts of agent (about 50-210 mg) in about 2 g stock solution, same rank for all
  Rank (bitterness): 3
  Rank# (Bitterness rank): 3

## NCC(=O)O [Glycine]
  Rank# (Bitterness rank): 2

## O=S(=O)(c1cccc2c(O)nccc12)N1CCCNCC1 [hydroxyfasudil]
  taste of the drug: highly aversive numbing and bitter taste

## CC1CCC(C(C)C)C(O)C1 (centres unmarked) [Menthol]
  Rank# (Bitterness rank): 7

## CC(O)COC[C@H]1O[C@@H]2O[C@H]3[C@H](O)[C@@H](O)[C@@H](O[C@H]4[C@H](O)[C@@H](O)[C@@H](O[C@H]5[C@H](O)[C@@H](O)[C@@H](O[C@H]6[C@H](O)[C@@H](O)[C@@H](O[C@H]7[C@H](O)[C@@H](O)[C@@H](O[C@H]8[C@H](O)[C@@H](O)[C@@H](O[C@H]1[C@H](O)[C@H]2O)O[C@@H]8COCC(C)O)O[C@@H]7COCC(C)O)O[C@@H]6COCC(C)O)O[C@@H]5COCC(C)O)O[C@@H]4COCC(C)O)O[C@@H]3COCC(C)O (some centres unmarked) [HPBCD, Hydroxypropyl betacyclodexrin]
  Rank# (Bitterness rank): 7

## Cl.O=S(=O)(c1cccc2cnccc12)N1CCCNCC1 [fasudil, hexahydro-1-(5-isoquinolinesulfonyl)-1H-1,4-diazepine monohydrochloride hemihydrate]
Listed as fasudil hydrochloride, monohydrochloride hemihydrate
  taste of the drug: highly aversive numbing and bitter taste
Monohydrochloride hemihydrate
  taste of the drug: very aversive, bitter taste
